Some of the results follow.
Columns and labels:
Assay in all cases: log2 fold change, soluble protein after heating vs DMSO (PISA); higher = thermal stabilisation; K562 cells, 10 uM, 30 min; active = over 0.2 and 3.5 SD of the protein, either way, in both replicates (recomputed)
[1] = compound: NC(=O)Nc1cc(-c2cccc(F)c2)sc1C(=O)N[C@H]1CCCNC1
Outline: (§1)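 Quantification of soluble protein used TMTpro 16plex LC-MS/MS, with channel sums equalised. Samples were the supernatant after 21,000xg for 90 min of pooled aliquots from K562 cells (2×10^6 cells/mL) treated with 10 μM compound for 30 min, heated for 3 min over 48°C-58°C, and extracted in PBS with 0.5% NP-40 at 4°C. Values, from duplicates, describe thermal stability against control samples on a log2 fold-change scale.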

The chains behind the UniProt entries cited, without tags or fusion partners. Where a name states a change or a piece, a line headed by the entry shows the natural chain unless it says otherwise.
UniProt Q5VYK3, whole entry, looked up: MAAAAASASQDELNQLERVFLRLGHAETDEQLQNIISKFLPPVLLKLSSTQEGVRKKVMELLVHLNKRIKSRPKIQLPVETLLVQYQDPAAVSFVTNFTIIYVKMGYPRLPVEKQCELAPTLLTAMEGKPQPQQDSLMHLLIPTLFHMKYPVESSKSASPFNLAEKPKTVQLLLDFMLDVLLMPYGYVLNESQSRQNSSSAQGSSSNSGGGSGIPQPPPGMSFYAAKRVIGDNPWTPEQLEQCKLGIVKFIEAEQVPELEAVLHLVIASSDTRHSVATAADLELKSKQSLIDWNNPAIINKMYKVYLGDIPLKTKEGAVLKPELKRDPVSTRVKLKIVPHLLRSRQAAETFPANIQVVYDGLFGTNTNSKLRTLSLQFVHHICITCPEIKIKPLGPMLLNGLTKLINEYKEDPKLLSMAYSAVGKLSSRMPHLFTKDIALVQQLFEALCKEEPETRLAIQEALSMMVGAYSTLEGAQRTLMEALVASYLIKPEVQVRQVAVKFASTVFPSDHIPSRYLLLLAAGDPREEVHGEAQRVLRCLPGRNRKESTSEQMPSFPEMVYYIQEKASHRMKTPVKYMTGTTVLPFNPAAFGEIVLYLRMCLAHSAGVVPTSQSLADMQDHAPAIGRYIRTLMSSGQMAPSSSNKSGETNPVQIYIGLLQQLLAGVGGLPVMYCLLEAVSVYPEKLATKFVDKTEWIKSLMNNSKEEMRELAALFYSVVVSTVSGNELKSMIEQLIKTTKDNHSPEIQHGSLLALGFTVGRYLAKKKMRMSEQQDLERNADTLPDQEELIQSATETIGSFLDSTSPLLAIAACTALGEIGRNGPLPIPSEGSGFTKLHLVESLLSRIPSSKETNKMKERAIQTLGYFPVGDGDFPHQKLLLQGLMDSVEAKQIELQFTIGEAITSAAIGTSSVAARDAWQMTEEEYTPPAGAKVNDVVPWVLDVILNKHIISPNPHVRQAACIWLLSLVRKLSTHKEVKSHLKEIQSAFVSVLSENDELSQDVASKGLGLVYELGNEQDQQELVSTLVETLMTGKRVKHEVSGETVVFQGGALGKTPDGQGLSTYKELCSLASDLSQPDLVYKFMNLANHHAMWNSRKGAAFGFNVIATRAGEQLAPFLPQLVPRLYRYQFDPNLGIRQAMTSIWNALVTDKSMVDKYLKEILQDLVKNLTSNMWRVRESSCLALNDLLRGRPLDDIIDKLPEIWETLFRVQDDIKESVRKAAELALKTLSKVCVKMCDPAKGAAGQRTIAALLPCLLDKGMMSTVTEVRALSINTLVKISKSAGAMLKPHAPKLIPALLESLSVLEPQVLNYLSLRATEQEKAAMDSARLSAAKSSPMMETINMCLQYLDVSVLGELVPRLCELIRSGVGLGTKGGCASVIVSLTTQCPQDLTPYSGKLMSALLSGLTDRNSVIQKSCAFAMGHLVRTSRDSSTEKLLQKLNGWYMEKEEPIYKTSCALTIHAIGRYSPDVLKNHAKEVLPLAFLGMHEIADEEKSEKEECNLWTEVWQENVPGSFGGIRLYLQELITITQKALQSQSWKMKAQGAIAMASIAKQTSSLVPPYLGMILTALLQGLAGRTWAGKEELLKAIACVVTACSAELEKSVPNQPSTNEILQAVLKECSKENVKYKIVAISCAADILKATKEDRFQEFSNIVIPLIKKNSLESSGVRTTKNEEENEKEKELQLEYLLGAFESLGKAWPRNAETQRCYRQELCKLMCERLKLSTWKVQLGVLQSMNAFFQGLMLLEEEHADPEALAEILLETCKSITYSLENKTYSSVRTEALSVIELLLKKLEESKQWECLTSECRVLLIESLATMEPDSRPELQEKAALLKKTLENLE
UniProt Q13409, whole entry, looked up: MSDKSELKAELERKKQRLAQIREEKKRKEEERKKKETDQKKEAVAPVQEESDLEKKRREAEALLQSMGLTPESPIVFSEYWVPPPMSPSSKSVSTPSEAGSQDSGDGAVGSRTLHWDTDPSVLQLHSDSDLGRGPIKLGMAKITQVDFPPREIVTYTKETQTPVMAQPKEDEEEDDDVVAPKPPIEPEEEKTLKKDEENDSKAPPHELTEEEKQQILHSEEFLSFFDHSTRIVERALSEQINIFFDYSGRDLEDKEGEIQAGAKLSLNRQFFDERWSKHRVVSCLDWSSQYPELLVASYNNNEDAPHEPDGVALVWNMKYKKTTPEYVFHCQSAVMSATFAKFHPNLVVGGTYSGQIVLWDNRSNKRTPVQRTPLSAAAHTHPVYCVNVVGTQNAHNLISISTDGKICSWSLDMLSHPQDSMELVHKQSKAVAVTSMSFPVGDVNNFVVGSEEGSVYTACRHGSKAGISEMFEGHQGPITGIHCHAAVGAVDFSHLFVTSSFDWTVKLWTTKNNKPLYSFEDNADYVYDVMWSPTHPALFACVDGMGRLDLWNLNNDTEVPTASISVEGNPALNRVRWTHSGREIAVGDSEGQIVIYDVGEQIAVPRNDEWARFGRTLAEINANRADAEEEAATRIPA
UniProt Q8NBA8: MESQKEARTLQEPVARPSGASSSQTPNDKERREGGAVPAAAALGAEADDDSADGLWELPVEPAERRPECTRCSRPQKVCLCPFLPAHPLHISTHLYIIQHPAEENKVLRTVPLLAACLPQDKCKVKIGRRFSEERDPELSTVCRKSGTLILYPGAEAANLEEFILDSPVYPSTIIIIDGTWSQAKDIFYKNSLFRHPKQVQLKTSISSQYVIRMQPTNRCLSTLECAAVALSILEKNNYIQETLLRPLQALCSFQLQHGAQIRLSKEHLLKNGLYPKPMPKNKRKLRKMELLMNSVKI
UniProt Q99615: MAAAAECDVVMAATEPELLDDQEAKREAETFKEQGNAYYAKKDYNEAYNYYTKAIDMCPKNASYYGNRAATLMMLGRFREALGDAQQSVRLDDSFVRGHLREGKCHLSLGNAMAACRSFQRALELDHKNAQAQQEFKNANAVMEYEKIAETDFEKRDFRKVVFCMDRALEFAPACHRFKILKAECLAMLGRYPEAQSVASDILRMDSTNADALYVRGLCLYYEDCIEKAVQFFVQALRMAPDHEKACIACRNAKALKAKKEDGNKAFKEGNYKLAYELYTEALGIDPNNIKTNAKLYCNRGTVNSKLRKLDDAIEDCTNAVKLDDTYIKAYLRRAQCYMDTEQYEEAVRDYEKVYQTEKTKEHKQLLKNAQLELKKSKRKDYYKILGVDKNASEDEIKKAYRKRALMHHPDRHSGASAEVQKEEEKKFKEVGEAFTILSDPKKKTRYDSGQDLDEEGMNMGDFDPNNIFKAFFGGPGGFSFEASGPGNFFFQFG
UniProt P23919: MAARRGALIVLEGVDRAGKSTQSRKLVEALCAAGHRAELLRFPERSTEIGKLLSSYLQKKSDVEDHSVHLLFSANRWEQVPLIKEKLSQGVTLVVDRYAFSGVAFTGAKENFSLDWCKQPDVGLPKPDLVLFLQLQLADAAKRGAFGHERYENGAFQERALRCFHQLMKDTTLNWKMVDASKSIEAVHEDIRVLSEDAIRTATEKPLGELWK
UniProt Q96G46: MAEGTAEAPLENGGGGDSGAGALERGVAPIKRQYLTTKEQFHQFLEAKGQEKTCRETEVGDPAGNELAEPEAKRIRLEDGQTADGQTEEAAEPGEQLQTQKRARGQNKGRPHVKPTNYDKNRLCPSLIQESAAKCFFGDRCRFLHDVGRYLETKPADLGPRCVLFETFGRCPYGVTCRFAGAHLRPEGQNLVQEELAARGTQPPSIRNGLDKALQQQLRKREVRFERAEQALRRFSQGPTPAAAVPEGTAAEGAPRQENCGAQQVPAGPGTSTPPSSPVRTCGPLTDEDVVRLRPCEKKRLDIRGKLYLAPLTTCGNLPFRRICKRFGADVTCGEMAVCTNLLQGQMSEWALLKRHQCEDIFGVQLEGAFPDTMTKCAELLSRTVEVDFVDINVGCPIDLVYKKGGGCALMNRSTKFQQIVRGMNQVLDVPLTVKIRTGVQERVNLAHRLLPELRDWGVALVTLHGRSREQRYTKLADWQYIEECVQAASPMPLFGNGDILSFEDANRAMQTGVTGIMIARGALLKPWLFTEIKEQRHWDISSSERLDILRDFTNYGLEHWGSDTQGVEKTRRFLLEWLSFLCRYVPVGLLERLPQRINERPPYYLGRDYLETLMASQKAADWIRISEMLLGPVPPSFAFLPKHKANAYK
UniProt Q13011: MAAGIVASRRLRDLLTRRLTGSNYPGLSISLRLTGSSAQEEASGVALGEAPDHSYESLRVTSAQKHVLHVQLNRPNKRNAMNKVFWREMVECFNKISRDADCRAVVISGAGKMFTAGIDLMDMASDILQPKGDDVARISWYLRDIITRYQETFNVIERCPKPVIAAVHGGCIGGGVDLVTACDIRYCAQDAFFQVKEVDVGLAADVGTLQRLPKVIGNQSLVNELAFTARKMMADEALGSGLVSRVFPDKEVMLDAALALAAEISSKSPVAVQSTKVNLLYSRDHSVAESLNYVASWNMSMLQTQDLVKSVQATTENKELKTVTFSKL
UniProt Q16610: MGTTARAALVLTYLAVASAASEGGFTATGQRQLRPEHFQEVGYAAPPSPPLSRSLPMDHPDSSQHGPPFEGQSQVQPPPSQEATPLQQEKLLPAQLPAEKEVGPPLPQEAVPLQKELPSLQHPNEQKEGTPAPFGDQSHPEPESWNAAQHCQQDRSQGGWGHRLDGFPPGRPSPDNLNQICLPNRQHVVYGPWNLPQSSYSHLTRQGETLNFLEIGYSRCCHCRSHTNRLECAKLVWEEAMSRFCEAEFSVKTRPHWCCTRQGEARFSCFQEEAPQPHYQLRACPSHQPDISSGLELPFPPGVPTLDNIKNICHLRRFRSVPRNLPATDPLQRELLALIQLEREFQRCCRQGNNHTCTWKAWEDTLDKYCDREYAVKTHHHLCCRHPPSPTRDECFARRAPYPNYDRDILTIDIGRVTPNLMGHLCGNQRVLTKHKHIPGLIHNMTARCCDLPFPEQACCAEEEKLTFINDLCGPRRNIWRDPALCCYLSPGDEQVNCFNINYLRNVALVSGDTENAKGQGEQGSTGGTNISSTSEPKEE
UniProt Q8N5C7: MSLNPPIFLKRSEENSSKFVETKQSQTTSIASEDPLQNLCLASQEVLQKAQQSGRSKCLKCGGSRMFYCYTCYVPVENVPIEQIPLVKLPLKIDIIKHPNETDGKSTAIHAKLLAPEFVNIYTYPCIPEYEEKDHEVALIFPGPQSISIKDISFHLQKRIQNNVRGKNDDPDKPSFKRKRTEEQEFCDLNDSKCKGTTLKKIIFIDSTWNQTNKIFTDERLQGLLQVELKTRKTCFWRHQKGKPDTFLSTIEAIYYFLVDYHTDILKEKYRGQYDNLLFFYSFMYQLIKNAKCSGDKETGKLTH
UniProt Q16254: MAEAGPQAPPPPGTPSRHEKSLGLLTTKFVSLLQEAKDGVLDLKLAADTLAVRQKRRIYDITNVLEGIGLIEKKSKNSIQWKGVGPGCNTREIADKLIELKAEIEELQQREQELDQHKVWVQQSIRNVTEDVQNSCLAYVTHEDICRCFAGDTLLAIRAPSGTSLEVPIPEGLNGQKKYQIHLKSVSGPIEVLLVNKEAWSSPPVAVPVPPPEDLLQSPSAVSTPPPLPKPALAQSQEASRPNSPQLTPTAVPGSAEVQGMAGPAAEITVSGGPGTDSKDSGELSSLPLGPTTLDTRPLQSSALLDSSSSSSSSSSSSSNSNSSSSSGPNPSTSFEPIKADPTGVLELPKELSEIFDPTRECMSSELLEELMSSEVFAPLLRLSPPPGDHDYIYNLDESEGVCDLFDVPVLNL
UniProt Q9H2P9: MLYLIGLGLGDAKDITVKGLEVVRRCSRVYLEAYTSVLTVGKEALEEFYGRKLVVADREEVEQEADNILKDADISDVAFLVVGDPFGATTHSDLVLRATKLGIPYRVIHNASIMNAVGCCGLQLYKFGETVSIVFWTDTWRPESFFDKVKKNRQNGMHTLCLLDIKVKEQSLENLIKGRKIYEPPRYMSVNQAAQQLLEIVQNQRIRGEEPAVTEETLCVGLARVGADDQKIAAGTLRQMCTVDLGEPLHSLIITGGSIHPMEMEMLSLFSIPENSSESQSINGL
UniProt Q99848: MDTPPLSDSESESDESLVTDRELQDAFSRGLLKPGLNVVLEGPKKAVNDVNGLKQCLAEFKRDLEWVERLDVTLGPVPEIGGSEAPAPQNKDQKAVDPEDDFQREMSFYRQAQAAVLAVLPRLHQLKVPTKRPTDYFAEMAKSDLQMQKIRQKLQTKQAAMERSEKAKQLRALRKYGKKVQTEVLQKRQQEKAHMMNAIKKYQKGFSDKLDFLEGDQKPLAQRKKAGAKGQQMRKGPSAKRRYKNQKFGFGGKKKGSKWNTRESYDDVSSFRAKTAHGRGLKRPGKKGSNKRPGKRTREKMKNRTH
UniProt Q96DA6: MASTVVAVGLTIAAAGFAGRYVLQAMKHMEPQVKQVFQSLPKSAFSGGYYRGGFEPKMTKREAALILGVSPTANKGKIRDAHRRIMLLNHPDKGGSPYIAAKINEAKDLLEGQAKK
UniProt O60869: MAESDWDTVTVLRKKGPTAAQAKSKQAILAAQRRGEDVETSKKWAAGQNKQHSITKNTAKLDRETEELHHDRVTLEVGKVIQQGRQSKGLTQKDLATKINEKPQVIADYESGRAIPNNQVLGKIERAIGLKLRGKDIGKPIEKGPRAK

[2] = compound: NC(=O)c1cnc(N[C@@H]2CCCC[C@@H]2N)nc1Nc1cccc(-n2nccn2)c1
Outline: as §1

[3] = compound: NC1(c2ccc(-c3nc4ccn5c(=O)[nH]nc5c4cc3-c3ccccc3)cc2)CCC1
Outline: as §1

[4] = compound: NCC(=O)Nc1ccc(-n2nc(C(F)(F)F)cc2-c2ccc3c(ccc4ccccc43)c2)cc1
Outline: as §1

entinostat = compound: Nc1ccccc1NC(=O)c1ccc(CNC(=O)OCc2cccnc2)cc1 [entinostat]
Outline: as §1

vorinostat = compound: O=C(CCCCCCC(=O)Nc1ccccc1)NO [vorinostat]
Outline: as §1

citarinostat = compound: O=C(CCCCCCNC(=O)c1cnc(N(c2ccccc2)c2ccccc2Cl)nc1)NO [citarinostat]
Outline: as §1

silmitasertib = compound: O=C(O)c1ccc2c(c1)nc(Nc1cccc(Cl)c1)c1ccncc12 [silmitasertib]
Outline: as §1

[5] = compound: O=C1NC(=O)C(c2cnc3ccccn23)=C1c1cn2c3c(cc(F)cc13)CN(C(=O)N1CCCCC1)CC2
Outline: as §1

[6] = compound: c1cc(OCCN2CCCCC2)cc(-c2n[nH]c3ccc(-c4nnc[nH]4)cc23)c1
Outline: as §1

entospletinib = compound: c1cn2cc(-c3ccc4cn[nH]c4c3)nc(Nc3ccc(N4CCOCC4)cc3)c2n1 [entospletinib]
Outline: as §1

Row | Target | log2 fold change [1] | log2 fold change [2] | log2 fold change [3] | log2 fold change [4] | log2 fold change (entinostat) | log2 fold change (vorinostat) | log2 fold change (citarinostat) | log2 fold change (silmitasertib) | log2 fold change [5] | log2 fold change [6] | log2 fold change (entospletinib)
1 | ECPAS (UniProt Q5VYK3) | inactive: -0.009 | inactive: -0.024 | inactive: -0.169 | inactive: -0.035 | inactive: 0.073 | inactive: 0.077 | inactive: 0.08 | inactive: 0.071 | inactive: -0.038 | inactive: -0.032 | 
2 | DYNC1I2 isoform 5 (UniProt Q13409) | inactive: -0.021 | inactive: -0.016 | inactive: -0.023 | inactive: 0.059 | inactive: -0.018 | inactive: -0.044 | inactive: 0.015 | inactive: 0.004 | inactive: -0.012 | inactive: 0.004 | 
3 | DTWD2 (UniProt Q8NBA8) | inactive: 0.284 | inactive: -0.03 | inactive: -0.058 | inactive: 0.068 | inactive: -0.079 | inactive: 0 | inactive: 0.152 | inactive: 0.089 | inactive: 0.26 | inactive: -0.123 | 
4 | DNAJC7 (UniProt Q99615) | inactive: -0.067 | inactive: -0.029 | inactive: -0.204 | inactive: -0.071 | inactive: 0.05 | inactive: 0.043 | inactive: 0.071 | inactive: 0.001 | inactive: -0.03 | inactive: -0.001 | 
5 | DTYMK (UniProt P23919) | inactive: 0.005 | inactive: -0.011 | inactive: -0.169 | inactive: -0.014 | inactive: -0.035 | inactive: 0.043 | inactive: 0.047 | inactive: -0.04 | inactive: -0.058 | inactive: -0.071 | 
6 | DUS3L (UniProt Q96G46) | inactive: 0.113 | inactive: -0.012 | inactive: 0.194 | inactive: 0.003 | inactive: 0.003 | inactive: 0.093 | inactive: 0.058 | inactive: 0.112 | inactive: -0.176 | inactive: -0.029 | 
7 | ECH1 (UniProt Q13011) | inactive: 0 | inactive: -0.101 | inactive: 0.295 | inactive: -0.078 | inactive: -0.025 | inactive: -0.015 | inactive: 0.002 | inactive: -0.072 | inactive: -0.076 | inactive: 0.038 | 
8 | ECM1 isoform 4 (UniProt Q16610) | inactive: -0.005 | inactive: -0.01 | inactive: 0.041 | inactive: -0.009 | inactive: 0.039 | inactive: -0.054 | inactive: -0.041 | inactive: -0.009 | inactive: -0.007 | inactive: 0.129 | inactive: -0.059
9 | DTWD1 (UniProt Q8N5C7) | inactive: -0.001 | inactive: 0.014 | inactive: -0.147 | inactive: -0.04 | inactive: 0.063 | active: 0.246 | inactive: -0.001 | inactive: -0.004 | inactive: 0.014 | inactive: -0.064 | 
10 | DPYSL2 (UniProt Q16555) | inactive: 0.053 | inactive: 0.01 | inactive: 0.014 | inactive: -0.056 | inactive: -0.037 | inactive: 0.276 | inactive: -0.017 | inactive: -0.118 | inactive: -0.224 | inactive: -0.054 | 
11 | E2F4 (UniProt Q16254) | inactive: 0.004 | inactive: -0.052 | inactive: -0.105 | inactive: -0.032 | inactive: 0.016 | inactive: -0.052 | inactive: 0.067 | inactive: 0.001 | inactive: 0.015 | inactive: 0.005 | 
12 | DPH5 isoform 5 (UniProt Q9H2P9) | inactive: -0.036 | inactive: -0.005 | inactive: 0.209 | inactive: -0.003 | inactive: -0.018 | inactive: -0.009 | inactive: 0.017 | inactive: -0.008 | inactive: 0.109 | inactive: 0.038 | 
13 | EBNA1BP2 (UniProt Q99848) | inactive: 0.05 | inactive: 0.006 | inactive: 0.195 | inactive: 0.158 | inactive: -0.029 | inactive: 0.133 | inactive: 0.041 | inactive: 0.151 | inactive: 0.352 | inactive: -0.292 | 
14 | DNAJC19 (UniProt Q96DA6) | inactive: -0.014 | inactive: 0.004 | inactive: -0.017 | inactive: -0.006 | inactive: 0.004 | inactive: -0.03 | inactive: 0.024 | inactive: -0.018 | inactive: 0.01 | inactive: -0.015 | 
15 | EDF1 (UniProt O60869) | inactive: 0.009 | inactive: 0.001 | inactive: 0.026 | inactive: 0.003 | inactive: -0.025 | inactive: -0.004 | inactive: 0.004 | inactive: -0.045 | inactive: -0.096 | inactive: 0.027 | inactive: -0.016

Two successive entries out of the list so far:
Row | Target | log2 fold change [1] | log2 fold change [2] | log2 fold change [3] | log2 fold change [4] | log2 fold change (entinostat) | log2 fold change (vorinostat) | log2 fold change (citarinostat) | log2 fold change (silmitasertib) | log2 fold change [5] | log2 fold change [6] | log2 fold change (entospletinib)
6 | DUS3L (UniProt Q96G46) | inactive: 0.113 | inactive: -0.012 | inactive: 0.194 | inactive: 0.003 | inactive: 0.003 | inactive: 0.093 | inactive: 0.058 | inactive: 0.112 | inactive: -0.176 | inactive: -0.029 | 
7 | ECH1 (UniProt Q13011) | inactive: 0 | inactive: -0.101 | inactive: 0.295 | inactive: -0.078 | inactive: -0.025 | inactive: -0.015 | inactive: 0.002 | inactive: -0.072 | inactive: -0.076 | inactive: 0.038 | 

From the supplement of paper PMC10849652
